This is an account of results in article PMC8875491.

Amino acid sequences for entries named in this document (tags omitted).
UniProt P49069: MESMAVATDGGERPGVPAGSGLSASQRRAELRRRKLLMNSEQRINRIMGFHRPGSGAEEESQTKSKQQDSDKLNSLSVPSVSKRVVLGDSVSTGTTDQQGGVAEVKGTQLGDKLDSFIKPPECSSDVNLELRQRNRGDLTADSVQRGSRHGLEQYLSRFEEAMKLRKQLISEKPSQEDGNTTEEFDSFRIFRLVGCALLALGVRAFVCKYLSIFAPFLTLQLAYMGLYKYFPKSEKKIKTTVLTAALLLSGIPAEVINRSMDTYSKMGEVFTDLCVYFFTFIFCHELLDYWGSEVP

Results are given in words; binding and its absence hold for the method and conditions named. Binding seen in cells or lysates may run through a third protein. Some results given as binding are weak or reduced against the parent protein; the word gives no strength.

Test [1] deals with T1, mouse wild type (WT) BRIL (mouse) (UniProt O88728).
T1 sequence: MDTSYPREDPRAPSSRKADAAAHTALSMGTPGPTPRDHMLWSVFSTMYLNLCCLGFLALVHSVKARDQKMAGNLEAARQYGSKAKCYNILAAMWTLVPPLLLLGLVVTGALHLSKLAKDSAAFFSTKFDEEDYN
Nature of the test: co-IP; MLO-A5 cells co-transfected, lysates after 24 h (50 mM Tris-HCl pH 7.4, 150 mM NaCl, 1 mM EDTA, 1% NP-40), BRIL co-IP with protein G dynabeads at 4 °C, Western blotting. Background: Immunoblotting shows a protein as a band on a membrane.

Test [2] addresses T1, mouse wild type (WT) BRIL (mouse). Nature of the test: co-IP; HEK293 cells co-transfected, lysates after 24 h (50 mM Tris-HCl pH 7.4, 150 mM NaCl, 1 mM EDTA, 1% NP-40), immunoprecipitated with anti-BRIL or anti-FLAG antibody and protein G dynabeads at 4 °C, Western blotting.
Test [3] addresses C-terminally FLAG-tagged CAML (calcium-modulating cyclophilin ligand) (UniProt P49069). The test is described as above.

As for “C-terminally FLAG-tagged CAML (calcium-modulating cyclophilin ligand) (from UniProt P49069 1-296)”, the binding entry in test [1] and in test [2] was “binds” in each case.

B1: mouse wild type (WT) BRIL (protein, UniProt O88728 1-134)
chain: T1 sequence
Turning to B1, the binding result in test [3] is “binds”.
